Measured values published in paper PMC6077975.

Biological target: T1, full-length ABCB6/HMT-1 as split-ubiquitin bait (HMT-1::Cub) (C. elegans) (UniProt G5EFD4)
T1 sequence: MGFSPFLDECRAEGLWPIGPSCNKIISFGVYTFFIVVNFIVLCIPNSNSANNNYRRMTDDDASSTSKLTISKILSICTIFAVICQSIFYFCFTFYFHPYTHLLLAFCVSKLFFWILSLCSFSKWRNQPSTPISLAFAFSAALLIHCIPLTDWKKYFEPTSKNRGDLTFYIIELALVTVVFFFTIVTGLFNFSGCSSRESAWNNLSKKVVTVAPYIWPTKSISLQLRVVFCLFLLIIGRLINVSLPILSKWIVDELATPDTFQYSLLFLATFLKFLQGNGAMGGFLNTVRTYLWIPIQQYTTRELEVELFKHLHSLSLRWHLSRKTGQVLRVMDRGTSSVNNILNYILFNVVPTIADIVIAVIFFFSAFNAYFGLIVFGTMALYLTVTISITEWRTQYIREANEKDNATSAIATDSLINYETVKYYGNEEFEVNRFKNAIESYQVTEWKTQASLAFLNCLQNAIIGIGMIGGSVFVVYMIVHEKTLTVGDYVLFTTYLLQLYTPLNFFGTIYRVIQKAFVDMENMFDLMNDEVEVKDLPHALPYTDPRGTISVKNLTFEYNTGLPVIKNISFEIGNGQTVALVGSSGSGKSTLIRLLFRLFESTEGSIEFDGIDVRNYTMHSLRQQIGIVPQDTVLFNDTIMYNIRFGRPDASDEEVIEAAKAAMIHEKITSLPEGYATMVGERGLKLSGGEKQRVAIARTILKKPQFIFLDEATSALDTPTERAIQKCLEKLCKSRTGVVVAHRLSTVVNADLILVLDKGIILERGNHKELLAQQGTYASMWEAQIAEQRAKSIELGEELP
Assay: two-hybrid; mating-based split-ubiquitin system (mbSUS) in yeast; CubPLV bait, NubG prey; growth on SC medium lacking adenine, histidine, leucine, tryptophan; β-galactosidase (X-gal) to confirm

binding: binds weakly
Substance: ABCB6/HMT-1 lacking the NTE domain as split-ubiquitin prey (ΔNTE-HMT-1::NubG) (C. elegans) (domain or fragment)

These are yes or no findings as the source states them, for the method shown. Binding can be weak; no strength is given.
